PubChem BioAssay (NCATS)
Inconclusive means that the source gave no clear call. Such entries were picked first, then a sample of the others. Potencies of inconclusive entries are doubtful fits and often do not repeat. Calls of active or inactive are those of the source. The call rests on the fitted dose curve; in most records, active means well fitted curve in the direction sought with a large enough effect; inconclusive means small, poorly fitted or top-dose-only effect, or another doubt; inactive means no such curve, though single readings can be large; an effect the other way counts as inactive or inconclusive.

Tests used:
[1] = Quantitative High-Throughput drug screen in 47 multiple myeloma cell lines against the NCATS MIPE library collection: KMS20_JCRB cell viability assay (AID 1918973); settings: CellTiter-Glo ATP, 48 h; viability (% of DMSO): at 45.8 µM (top of the series); further: nearly all actives have a fitted effect of over 45% in size
Outline: (§1)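 CellTiter-Glo ATP luminescence gave viability after 48 h compound treatment at 37C of 500 multiple myeloma cells per well. Normalisation used DMSO-only wells as 100% and media-only wells as 0% viability; primary qHTS of approved and investigational drugs.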

[2] = Quantitative High-Throughput drug screen in 47 multiple myeloma cell lines against the NCATS MIPE library collection: KMS21BM_JCRB cell viability assay (AID 1918974); settings: ATP luminescence, 48 h; viability: at 45.8 µM (top of the series) unless noted
Outline: as §1

[3] = Quantitative High-Throughput drug screen in 47 multiple myeloma cell lines against the NCATS MIPE library collection: KMS26_JCRB cell viability assay (AID 1918975); settings: KMS26 myeloma cells viability, CellTiter-Glo ATP, 48 h; viability (% of DMSO): at 45.8 µM (top of the series); further: nearly all actives have a fitted effect of over 45% in size
Outline: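 Luminescent ATP measurement with CellTiter-Glo gives viability, scaled between DMSO-only wells (100%) and media-only wells (0%). Cells, 500 per well, faced library compounds for 48 hours at 37C.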

[4] = Quantitative High-Throughput drug screen in 47 multiple myeloma cell lines against the NCATS MIPE library collection: MMM1_PLB cell viability assay (AID 1918976); further: nearly all actives have a fitted effect of over 35% in size
Outline: (§2)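 Readout: median RLU from CellTiter-Glo after 5 min at room temperature. Preceding step was 48 h drug treatment of 500 cells/well at 37 °C, 5% CO2, with DMSO-only and media-only control wells.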

[5] = Quantitative High-Throughput drug screen in 47 multiple myeloma cell lines against the NCATS MIPE library collection: MOLP8_DSMZ cell viability assay (AID 1918977); settings: MOLP8 myeloma viability, CellTiter-Glo ATP luminescence, 48 h; viability (% of control): at 45.8 µM (top of the series); further: nearly all actives have a fitted effect of over 45% in size
Outline: as §2

[6] = Quantitative High-Throughput drug screen in 47 multiple myeloma cell lines against the NCATS MIPE library collection: NCIH929_DSMZ cell viability assay (AID 1918978); further: nearly all actives have a fitted effect of over 35% in size
Outline: as §2

[7] = Quantitative High-Throughput drug screen in 47 multiple myeloma cell lines against the NCATS MIPE library collection: MM1S_ATCC cell viability assay (AID 1918980); further: nearly all actives have a fitted effect of over 45% in size
Outline: as §2

[8] = Quantitative High-Throughput drug screen in 47 multiple myeloma cell lines against the NCATS MIPE library collection: MM1R_ATCC cell viability assay (AID 1918981); further: nearly all actives have a fitted effect of over 35% in size
Outline: as §2

[9] = Quantitative High-Throughput drug screen in 47 multiple myeloma cell lines against the NCATS MIPE library collection: LP1_DSMZ cell viability assay (AID 1918982); settings: LP1 myeloma viability, CellTiter-Glo ATP luminescence, 48 h; viability (% of control): at 45.8 µM (top of the series); further: nearly all actives have a fitted effect of over 35% in size
Outline: as §2

[10] = Quantitative High-Throughput drug screen in 47 multiple myeloma cell lines against the NCATS MIPE library collection: L363_DSMZ cell viability assay (AID 1918984); settings: L363 myeloma viability, CellTiter-Glo ATP luminescence, 48 h; viability (% of control): at 45.8 µM (top of the series); further: nearly all actives have a fitted effect of over 40% in size
Outline: as §2

[11] = Quantitative High-Throughput drug screen in 47 multiple myeloma cell lines against the NCATS MIPE library collection: KMS34_JCRB cell viability assay (AID 1918985); settings: KMS34 myeloma viability, CellTiter-Glo ATP luminescence, 48 h; viability, percent of control: at 45.8 µM (top of the series); further: nearly all actives have a fitted effect of over 40% in size
Outline: as §2

[12] = Quantitative High-Throughput drug screen in 47 multiple myeloma cell lines against the NCATS MIPE library collection: OCIMY7_PLB cell viability assay (AID 1918987); settings: OCI-MY7 myeloma viability, CellTiter-Glo ATP, 48 h; viability (% of DMSO): at 45.8 µM (top of the series); further: nearly all actives have a fitted effect of over 65% in size
Outline: as §2

[13] = Quantitative High-Throughput drug screen in 47 multiple myeloma cell lines against the NCATS MIPE library collection: OCIMY5_PLB cell viability assay (AID 1918988); settings: OCI-MY5 myeloma viability, ATP luminescence, 48 h; viability, % of control: at 45.8 µM (top of the series); further: nearly all actives have a fitted effect of over 65% in size
Outline: as §2

[14] = Quantitative High-Throughput drug screen in 47 multiple myeloma cell lines against the NCATS MIPE library collection: OPM1_PLB cell viability assay (AID 1918989); further: nearly all actives have a fitted effect of over 40% in size
Outline: as §2

[15] = Quantitative High-Throughput drug screen in 47 multiple myeloma cell lines against the NCATS MIPE library collection: U266_ATCC cell viability assay (AID 1919864); settings: U266 myeloma viability, CellTiter-Glo ATP luminescence, 48 h; viability (% of DMSO control): at 45.8 µM (top of the series); further: nearly all actives have a fitted effect of over 35% in size
Outline: as §2

[16] = Quantitative High-Throughput drug screen in 47 multiple myeloma cell lines against the NCATS MIPE library collection: XG6_PLB cell viability assay (AID 1919865); settings: XG6 myeloma viability, CellTiter-Glo ATP luminescence, 48 h; viability (% of control): at 45.8 µM (top of the series); further: nearly all actives have a fitted effect of over 40% in size
Outline: as §2

[17] = Quantitative High-Throughput drug screen in 47 multiple myeloma cell lines against the NCATS MIPE library collection: XG1_PLB cell viability assay (AID 1919866); settings: CellTiter-Glo ATP, 48 h; viability: at 45.8 µM (top of the series); further: nearly all actives have a fitted effect of over 35% in size
Outline: as §2

[18] = Quantitative High-Throughput drug screen in 47 multiple myeloma cell lines against the NCATS MIPE library collection: OCIMY1_PLB cell viability assay (AID 1918979); settings: OCI-MY1 myeloma viability, CellTiter-Glo ATP, 48 h; viability: at 45.8 µM (top of the series) unless noted; further: nearly all actives have a fitted effect of over 35% in size
Outline: as §2

[19] = Quantitative High-Throughput drug screen in 47 multiple myeloma cell lines against the NCATS MIPE library collection: KMS28PE_JCRB cell viability assay (AID 1918983); further: nearly all actives have a fitted effect of over 35% in size
Outline: as §2

[20] = Quantitative High-Throughput drug screen in 47 multiple myeloma cell lines against the NCATS MIPE library collection: SKMM1_PLB cell viability assay (AID 1919863); settings: SKMM1 myeloma viability, CellTiter-Glo ATP, 48 h; viability: hits give low values; further: nearly all actives have a fitted effect of over 35% in size
Outline: as §2
Potency means the concentration at half of the fitted maximal effect.

O=C(O)c1cn(C2CC2)c2cc(N3CCNCC3)c(F)cc2c1=O
inconclusive: Potency [2] 1.05 µM [rising, full curve, poor fit] | Potency [3] 1.05 µM [rising, full curve, poor fit] | Potency [4] 0.0372 µM [rising, full curve] | Potency [7] 0.0066 µM [rising, full curve, poor fit] | Potency [9] 0.0066 µM [rising, full curve, poor fit] | Potency [10] 0.0047 µM [rising, full curve, poor fit] | Potency [12] 5.9 µM [rising, partial curve, poor fit] | Potency [13] 0.0019 µM [rising, full curve, poor fit]
inactive: Potency [1] | Potency [5] | Potency [6] | Potency [8] | Potency [11] | Potency [14] | Potency [15] | Potency [16] | Potency [17]

COc1ccccc1-c1cccc(-c2c(O)c3cc(C#N)c(Cl)cc3[nH]c2=O)c1
inactive: Potency [1] | Potency [3] | Potency [5] | Potency [18] | Potency [7] | Potency [19] | viability [20] 104% | Potency [15]
active: viability [2] 162% [at 92.2 µM]
inconclusive: Potency [4] 0.027 µM [rising, full curve, poor fit] | Potency [6] 48.1 µM [cytotoxic, partial curve, poor fit] | Potency [9] 67.9 µM [rising, single point] | Potency [10] 85.5 µM [cytotoxic, single point] | Potency [12] 0.0171 µM [rising, full curve, poor fit] | Potency [14] 34 µM [cytotoxic, partial curve, poor fit] | Potency [17] 38.2 µM [cytotoxic, partial curve]

C[C@H]1O[C@@H](n2cc(F)c(=O)[nH]c2=O)[C@H](O)[C@H]1O
inconclusive: Potency [1] 0.0469 µM [cytotoxic, full curve, poor fit] | Potency [2] 37.2 µM [rising, partial curve] | Potency [3] 23.5 µM [cytotoxic, partial curve, poor fit] | Potency [4] 14.8 µM [cytotoxic, partial curve, poor fit] | Potency [5] 18.7 µM [cytotoxic, partial curve, poor fit] | Potency [7] 20.9 µM [cytotoxic, partial curve, poor fit] | Potency [9] 0.0083 µM [cytotoxic, full curve, poor fit] | Potency [10] 0.0015 µM [cytotoxic, full curve, poor fit] | Potency [11] 18.7 µM [cytotoxic, partial curve, poor fit] | Potency [12] 5.9 µM [cytotoxic, partial curve, poor fit] | Potency [13] 11.8 µM [cytotoxic, partial curve, poor fit] | Potency [20] 29.6 µM [cytotoxic, partial curve, poor fit] | Potency [15] 0.001 µM
inactive: Potency [6] | Potency [19]

Cc1cc(NS(=O)(=O)c2ccc(N)cc2)no1
inconclusive: Potency [4] 0.0083 µM [rising, full curve, poor fit] | Potency [6] 33.2 µM [cytotoxic, single point] | Potency [9] 0.001 µM [cytotoxic] | Potency [13] 33.2 µM [rising, single point] | Potency [16] 23.5 µM [cytotoxic, single point] | Potency [17] 20.9 µM [cytotoxic, single point]
inactive: Potency [1] | Potency [2] | Potency [3] | Potency [5] | Potency [10] | Potency [11] | Potency [14] | viability [20] 140%
active: Potency [7] 9.35 µM | Potency [12] 16.6 µM

CN1CCN2c3ccccc3Cc3ccccc3C2C1 (centres undefined)
active: Potency [3] 26.4 µM | Potency [4] 20.9 µM | Potency [18] 16.6 µM | Potency [12] 18.7 µM | Potency [17] 18.7 µM
inconclusive: Potency [1] 13.2 µM [cytotoxic, partial curve, poor fit] | Potency [2] 10.5 µM [cytotoxic, partial curve, poor fit] | Potency [5] 33.2 µM [cytotoxic, single point] | Potency [6] 14.8 µM [cytotoxic, partial curve, poor fit] | Potency [8] 26.4 µM [cytotoxic, single point] | Potency [9] 20.9 µM [cytotoxic, partial curve] | Potency [19] 23.5 µM [cytotoxic, partial curve] | Potency [10] 0.0042 µM [cytotoxic, full curve, poor fit] | Potency [11] 26.4 µM [cytotoxic, single point] | Potency [20] 33.2 µM [cytotoxic, single point] | Potency [15] 0.662 µM [cytotoxic, full curve, poor fit]

C=C1CCC2[C@](C)(CO)C(O)CC[C@]2(C)C1CC=C1C(=O)OCC1O (some centres undefined)
inconclusive: Potency [1] 0.855 µM [cytotoxic, full curve, poor fit] | Potency [2] 42.9 µM [rising, partial curve, poor fit] | Potency [3] 76.2 µM [cytotoxic, single point] | Potency [4] 9.59 µM [cytotoxic, partial curve, poor fit] | Potency [5] 0.0855 µM [cytotoxic, full curve, poor fit] | Potency [6] 15.2 µM [cytotoxic, partial curve, poor fit] | Potency [8] 54 µM [cytotoxic, single point] | Potency [19] 30.3 µM [cytotoxic, partial curve, poor fit] | Potency [10] 0.0241 µM [cytotoxic, full curve, poor fit] | Potency [11] 0.0605 µM [rising, full curve, poor fit] | Potency [12] 1.36 µM [cytotoxic, full curve, poor fit] | Potency [20] 54 µM [cytotoxic, partial curve, poor fit]
inactive: Potency [7] | Potency [15] | Potency [16] | Potency [17]

COc1ccc(Cn2ccc3ccc(C(=O)NO)cc32)cc1
active: Potency [2] 5.9 µM | Potency [6] 18.7 µM | Potency [9] 16.6 µM
inconclusive: Potency [1] 23.5 µM [cytotoxic, partial curve, poor fit] | Potency [3] 18.7 µM [cytotoxic, partial curve, poor fit] | Potency [4] 16.6 µM [cytotoxic, partial curve, poor fit] | Potency [5] 7.43 µM [cytotoxic, partial curve] | Potency [18] 37.2 µM [cytotoxic, single point] | Potency [10] 14.8 µM [cytotoxic, partial curve, poor fit] | Potency [11] 14.8 µM [cytotoxic, partial curve, poor fit] | Potency [13] 29.6 µM [cytotoxic, single point] | Potency [14] 18.7 µM [cytotoxic, partial curve, poor fit] | Potency [20] 1.32 µM [cytotoxic, partial curve, poor fit] | Potency [17] 11.8 µM [cytotoxic, partial curve]
inactive: Potency [8]

Nc1c2c(nc3ccccc13)CCCC2
active: Potency [13] 23.5 µM
inactive: Potency [6] | Potency [18] | Potency [12] | Potency [14] | Potency [16] | Potency [17]
inconclusive: Potency [1] 0.148 µM [rising, full curve, poor fit] | Potency [2] 23.5 µM [rising, partial curve, poor fit] | Potency [3] 23.5 µM [cytotoxic, single point] | Potency [4] 14.8 µM [cytotoxic, partial curve, poor fit] | Potency [5] 29.6 µM [cytotoxic, single point] | Potency [8] 37.2 µM [cytotoxic, single point] | Potency [10] 0.0083 µM [rising, full curve, poor fit] | Potency [11] 9.35 µM [cytotoxic, partial curve, poor fit] | Potency [20] 14.8 µM [cytotoxic, partial curve, poor fit]

O=C(NCCS(=O)(=O)c1ccc(C(F)(F)F)cn1)c1ccc(Cl)cc1
inconclusive: Potency [1] 11.8 µM [rising, single point] | Potency [2] 0.209 µM [cytotoxic, full curve, poor fit] | Potency [3] 0.0296 µM [cytotoxic, full curve, poor fit] | Potency [12] 0.0012 µM [rising, full curve, poor fit] | Potency [13] 0.118 µM [cytotoxic, full curve, poor fit] | Potency [16] 0.0037 µM [rising, full curve, poor fit]
inactive: Potency [4] | Potency [5] | Potency [6] | Potency [7] | Potency [9] | Potency [19] | Potency [10] | Potency [11] | viability [20] 128% | Potency [15] | Potency [17]
